Experimental data as given in patent US20110212169A1, “METHOD FOR PRODUCING POWDER CONTAINING NANOPARTICULATED SPARINGLY SOLUBLE DRUG, POWDER PRODUCED THEREBY AND PHARMACEUTICAL COMPOSITION CONTAINING SAME (As Amended)” (Amorepacific Corporation, priority 2008, published 2011).
For at least one compound, name, drawing or mass did not settle the structure.

Assay: Particle size of drug after redispersion in distilled water (laser scattering particle size analyzer)
Format: physicochemical
Conditions: carageenan 5 wt %, freeze dried powder redispersed in distilled water, different drugs
Protocol: Each powder (0.01 g) was redispersed in distilled water (5 mL) and particle size was measured. Electron microscopic images of the powders when the concentration of the carageenan solution was 0.1 wt % and 2 wt % are shown in FIGS. 2a and 2b, respectively. The redispersion was conducted by lightly shaking the mixture with a hand. The particle size was measured under aqueous condition using a laser scattering particle size analyzer (LA 910, Horiba, Japan) (Mie & Fraunhofer, relative refraction index=1). The resolving power of the ultrasonic disperser used for the particle size measurement was 40 W (39 kHz), and the speed of stirring and circulation was 340 mL/min. The particle size measurement was made after performing ultrasonic dispersion for 1 minute.
With `CCC(C)n1ncn(-c2ccc(N3CCN(c4ccc(OCC5COC(Cn6cncn6)(c6ccc(Cl)cc6Cl)O5)cc4)CC3)cc2)c1=O` (stereo not drawn) [Itraconazole, itraconazole] the Average particle size was 0.11 (±0.06) μm. For `CC(C)=CCOc1ccc(/C=C/C(=O)c2ccc(OCC=C(C)C)cc2OCC(=O)O)cc1` [Sofalcone, sofalcone], the Average particle size was 0.32 (±0.11) μm. With `CC(C)OC(=O)C(C)(C)Oc1ccc(C(=O)c2ccc(Cl)cc2)cc1` [Fenofibrate, fenofibrate] the Average particle size was 0.16 (±0.09) μm.
